No constants are given. Whether binding was seen depends on the method and setting. Binding seen in cells or lysates may run through a third protein. Some results given as binding are weak or reduced against the parent protein; the word gives no strength.
Experiments:
[1] = molecular target: CD44 (human) (human (endogenous in left ventricle tissue)) (UniProt P16070); test: co-IP; lysates of human left ventricle tissue immunoprecipitated with anti-CD44 antibodies, reblotted with anti-Epac 1/2 or anti-CD44; patients with preserved (LVEF > 60%) or compromised (LVEF < 50%) LV contractility
[2] = molecular target: T1, CD44 (mouse (endogenous in mouse ventricle and HL-1 myocytes)) (UniProt P15379); test: proximity ligation; in situ in HL-1 myocytes, confocal images; cells treated with osteopontin, isoproterenol or 8-CPT-cAMP
T1 sequence: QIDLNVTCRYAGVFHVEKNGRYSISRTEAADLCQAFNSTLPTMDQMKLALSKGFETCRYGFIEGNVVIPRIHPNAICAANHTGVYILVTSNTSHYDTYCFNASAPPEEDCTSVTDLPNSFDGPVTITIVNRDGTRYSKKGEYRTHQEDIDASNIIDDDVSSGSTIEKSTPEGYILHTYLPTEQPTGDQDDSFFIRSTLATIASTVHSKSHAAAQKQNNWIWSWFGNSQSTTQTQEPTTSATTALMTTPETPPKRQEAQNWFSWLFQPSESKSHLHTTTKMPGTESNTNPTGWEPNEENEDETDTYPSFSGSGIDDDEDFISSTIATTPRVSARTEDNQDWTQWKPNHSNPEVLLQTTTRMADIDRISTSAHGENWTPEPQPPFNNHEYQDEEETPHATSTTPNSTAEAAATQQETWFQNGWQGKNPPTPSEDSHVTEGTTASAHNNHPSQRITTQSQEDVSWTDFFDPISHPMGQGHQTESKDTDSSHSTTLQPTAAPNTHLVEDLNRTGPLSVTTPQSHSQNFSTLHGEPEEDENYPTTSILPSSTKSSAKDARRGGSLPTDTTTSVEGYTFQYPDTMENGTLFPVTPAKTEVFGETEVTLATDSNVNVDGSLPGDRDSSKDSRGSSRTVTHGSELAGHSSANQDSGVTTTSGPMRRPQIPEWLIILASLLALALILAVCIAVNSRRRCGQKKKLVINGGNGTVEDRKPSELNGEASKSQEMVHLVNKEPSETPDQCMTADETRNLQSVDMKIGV

Sequences of proteins named here, by UniProt entry; tags and fusion partners are left off. Residues count along the entry.
UniProt P16070, residues 21-742: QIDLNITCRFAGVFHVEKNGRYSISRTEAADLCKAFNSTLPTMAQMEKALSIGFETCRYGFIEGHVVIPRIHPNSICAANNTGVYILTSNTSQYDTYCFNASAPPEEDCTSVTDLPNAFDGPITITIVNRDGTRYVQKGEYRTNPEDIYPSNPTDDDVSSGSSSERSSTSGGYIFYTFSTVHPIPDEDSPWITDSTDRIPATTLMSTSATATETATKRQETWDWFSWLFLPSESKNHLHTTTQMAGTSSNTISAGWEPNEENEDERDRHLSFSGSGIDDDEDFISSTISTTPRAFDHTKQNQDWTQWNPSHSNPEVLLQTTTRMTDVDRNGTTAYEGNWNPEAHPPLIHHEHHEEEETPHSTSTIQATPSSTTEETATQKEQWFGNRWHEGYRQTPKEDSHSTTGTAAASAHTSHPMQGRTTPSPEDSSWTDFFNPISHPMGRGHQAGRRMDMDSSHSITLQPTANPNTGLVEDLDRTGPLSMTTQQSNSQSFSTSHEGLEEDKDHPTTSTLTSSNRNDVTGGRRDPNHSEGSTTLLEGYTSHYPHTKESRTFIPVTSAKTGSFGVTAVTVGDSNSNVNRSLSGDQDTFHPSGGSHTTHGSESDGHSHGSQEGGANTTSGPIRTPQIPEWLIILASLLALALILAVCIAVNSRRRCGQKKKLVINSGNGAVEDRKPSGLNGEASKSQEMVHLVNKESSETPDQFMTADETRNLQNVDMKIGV
UniProt O95398: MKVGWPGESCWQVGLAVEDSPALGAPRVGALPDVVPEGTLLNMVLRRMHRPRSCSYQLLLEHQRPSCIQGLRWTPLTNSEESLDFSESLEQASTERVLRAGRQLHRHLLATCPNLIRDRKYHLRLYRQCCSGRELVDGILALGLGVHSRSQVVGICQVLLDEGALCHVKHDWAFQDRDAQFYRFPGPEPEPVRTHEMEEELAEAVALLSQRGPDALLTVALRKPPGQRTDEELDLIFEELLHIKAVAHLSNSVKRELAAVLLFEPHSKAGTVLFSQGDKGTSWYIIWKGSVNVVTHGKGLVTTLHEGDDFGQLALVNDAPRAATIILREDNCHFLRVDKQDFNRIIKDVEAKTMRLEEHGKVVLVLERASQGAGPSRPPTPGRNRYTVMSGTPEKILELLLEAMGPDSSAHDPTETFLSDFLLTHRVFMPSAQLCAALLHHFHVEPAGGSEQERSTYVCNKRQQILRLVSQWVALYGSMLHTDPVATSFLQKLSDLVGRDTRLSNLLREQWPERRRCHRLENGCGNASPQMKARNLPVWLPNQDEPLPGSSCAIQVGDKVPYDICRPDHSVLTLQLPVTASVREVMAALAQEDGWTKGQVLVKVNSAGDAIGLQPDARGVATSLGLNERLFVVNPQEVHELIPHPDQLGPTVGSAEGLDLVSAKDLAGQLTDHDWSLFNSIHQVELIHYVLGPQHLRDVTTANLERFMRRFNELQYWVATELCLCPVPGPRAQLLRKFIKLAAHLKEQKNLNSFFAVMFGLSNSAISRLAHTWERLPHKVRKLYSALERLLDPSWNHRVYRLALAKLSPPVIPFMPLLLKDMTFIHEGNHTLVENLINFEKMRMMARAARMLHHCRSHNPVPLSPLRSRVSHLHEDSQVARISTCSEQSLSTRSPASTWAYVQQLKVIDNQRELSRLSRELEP
UniProt Q8VCC8: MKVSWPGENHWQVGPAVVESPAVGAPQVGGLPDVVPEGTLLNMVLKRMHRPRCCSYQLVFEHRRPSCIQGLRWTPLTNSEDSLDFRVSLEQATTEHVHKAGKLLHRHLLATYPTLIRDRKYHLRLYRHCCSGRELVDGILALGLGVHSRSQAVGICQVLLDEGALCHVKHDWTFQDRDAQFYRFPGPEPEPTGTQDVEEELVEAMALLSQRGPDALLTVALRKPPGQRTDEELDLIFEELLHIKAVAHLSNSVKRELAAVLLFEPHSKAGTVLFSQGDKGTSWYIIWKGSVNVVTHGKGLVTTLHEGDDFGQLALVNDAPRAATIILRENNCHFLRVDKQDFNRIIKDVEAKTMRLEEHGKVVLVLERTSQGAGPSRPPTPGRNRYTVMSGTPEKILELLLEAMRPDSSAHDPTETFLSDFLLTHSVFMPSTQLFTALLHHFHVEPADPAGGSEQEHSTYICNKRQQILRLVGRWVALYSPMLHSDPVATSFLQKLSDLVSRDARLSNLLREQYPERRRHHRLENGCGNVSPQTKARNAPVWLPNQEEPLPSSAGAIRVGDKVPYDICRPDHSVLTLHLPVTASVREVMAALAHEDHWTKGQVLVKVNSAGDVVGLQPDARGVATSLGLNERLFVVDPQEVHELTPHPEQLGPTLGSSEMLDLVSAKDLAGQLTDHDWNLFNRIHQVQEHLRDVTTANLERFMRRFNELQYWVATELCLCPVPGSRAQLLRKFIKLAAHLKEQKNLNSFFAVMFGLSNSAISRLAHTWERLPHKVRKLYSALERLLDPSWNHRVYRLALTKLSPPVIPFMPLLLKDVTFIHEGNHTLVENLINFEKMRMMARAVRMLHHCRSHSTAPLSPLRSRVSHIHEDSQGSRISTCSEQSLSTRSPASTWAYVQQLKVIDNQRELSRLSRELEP
UniProt Q9EQZ6: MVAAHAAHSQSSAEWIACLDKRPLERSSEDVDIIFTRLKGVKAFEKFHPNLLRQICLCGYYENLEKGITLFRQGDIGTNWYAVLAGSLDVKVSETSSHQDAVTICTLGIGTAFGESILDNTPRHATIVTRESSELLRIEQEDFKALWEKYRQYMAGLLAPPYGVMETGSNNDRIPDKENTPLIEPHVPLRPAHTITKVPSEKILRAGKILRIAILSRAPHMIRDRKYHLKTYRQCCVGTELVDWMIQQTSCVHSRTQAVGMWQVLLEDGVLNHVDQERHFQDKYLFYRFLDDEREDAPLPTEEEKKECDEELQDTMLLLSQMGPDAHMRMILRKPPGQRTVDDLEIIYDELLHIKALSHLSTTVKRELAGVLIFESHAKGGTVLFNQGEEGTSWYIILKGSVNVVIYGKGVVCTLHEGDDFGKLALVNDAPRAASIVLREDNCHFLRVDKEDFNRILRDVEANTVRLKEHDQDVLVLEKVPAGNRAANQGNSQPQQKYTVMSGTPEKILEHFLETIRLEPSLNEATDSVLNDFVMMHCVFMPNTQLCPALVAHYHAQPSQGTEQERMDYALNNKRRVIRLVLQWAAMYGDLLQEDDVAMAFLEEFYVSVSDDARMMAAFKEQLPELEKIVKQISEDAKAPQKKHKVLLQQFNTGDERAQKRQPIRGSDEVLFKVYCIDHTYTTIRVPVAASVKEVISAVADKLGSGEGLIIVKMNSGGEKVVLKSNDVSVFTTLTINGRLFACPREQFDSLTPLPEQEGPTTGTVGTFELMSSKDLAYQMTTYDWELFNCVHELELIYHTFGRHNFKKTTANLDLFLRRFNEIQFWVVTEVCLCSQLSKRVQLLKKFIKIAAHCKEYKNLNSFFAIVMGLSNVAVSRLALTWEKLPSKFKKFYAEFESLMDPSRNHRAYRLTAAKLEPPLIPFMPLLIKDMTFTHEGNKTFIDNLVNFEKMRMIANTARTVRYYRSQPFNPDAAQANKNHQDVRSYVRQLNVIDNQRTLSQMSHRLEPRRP

[3] = molecular target: T1, CD44 (mouse (endogenous in mouse ventricle and HL-1 myocytes)); test: co-IP; lysates of mouse ventricle tissue immunoprecipitated with anti-CD44 antibodies, reblotted with anti-Epac1; wild-type mice without isoproterenol
[4] = molecular target: T1, CD44 (mouse (endogenous in mouse ventricle and HL-1 myocytes)); test: co-IP; lysates of mouse ventricle tissue immunoprecipitated with anti-CD44 antibodies, reblotted with anti-Epac 1/2, anti-PKAc, anti-PKAIIα or anti-CD44; wild-type mice given isoproterenol 30 mg/kg per day subcutaneously for 48 h or 15 days (PKA subunits: with or without isoproterenol)
[5] = molecular target: T1, CD44 (mouse (endogenous in mouse ventricle and HL-1 myocytes)); test: co-IP; HL-1 myocyte lysates immunoprecipitated with anti-CD44 antibodies, reblotted with anti-Epac1/2, anti-PKAIIα, anti-PKAc and anti-CD44; reverse with anti-Epac1/Epac2, anti-PKAIIα and anti-PKAc; cells treated with osteopontin (100 ng/mL), isoproterenol (10 µmol/L) or 8-CPT-cAMP (100 µmol/L) for 24 h

| Substance | binding [1] | binding [2] | binding [3] | binding [4] | binding [5] |
| --- | --- | --- | --- | --- | --- |
| Epac1 (human) (from UniProt O95398 1-923) | binds |  |  |  |  |
| exchange protein directly activated by cAMP 1 (Epac1) (from UniProt Q8VCC8 1-918) |  | binds | binds weakly | binds | binds |
| exchange protein directly activated by cAMP 2 (Epac2) (from UniProt Q9EQZ6 1-1011) |  |  |  | binds weakly | binds weakly |

Source: publication PMC10347873
